The filed quantity is “Percent Effect” (%). The controls that fix the scale are not given in the record; negative values are as filed. The compounds are a random part of those screened. Two or more numbers in one place are separate tests of the same structure; such repeats can differ widely.

A: 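Growth of Mycobacterium tuberculosis over 4 days (cholesterol / DPPC medium with tyloxapol); the read-out is not stated. Tested at 50 µM. Direction is inferred from retests: higher values go with more growth inhibition. About 69,000 compounds were tested under these conditions; 0.54% (about 370) showed 50% or more at least once.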
B: 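Phenotypic screen: M. tuberculosis growth, glucose 7H9 medium, 3 days; the read-out is not stated. Concentration: 50 µM. Direction is inferred from retests: higher values go with more growth inhibition. Size under these conditions: about 69,000 compounds, about 760 of them at 50% or above in at least one test.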

{"compound": "CCOCc1cnc2n1CCN(C(=O)C1=CCCC1)C2C", "stereo": "stereo not shown", "A": -9.463, "B": 1.072}
{"compound": "O=S(=O)(c1ccc(Cl)s1)N1CCCn2ncnc21", "A": "0.8924 and -10.33", "B": 0.5068}
{"compound": "CCc1nc(C2CCCN2CC(=O)N2CCCc3ccccc32)no1", "stereo": "stereo not shown", "A": 14.13, "B": "3.318 and 25.95"}
{"compound": "Cc1cccc(CN2CCc3onc(CN(C)C)c3C2)n1", "A": -29.11, "B": -10.29}
{"compound": "CNC(=O)CN1CCOCC2(CN(CCC(F)(F)F)CCO2)C1.O=C(O)C(F)(F)F.O=C(O)C(F)(F)F", "stereo": "stereo not shown", "A": 1.481, "B": 14.36}
{"compound": "Cc1cccc(-c2nc(C)nn2CC(=O)NC(C)C)c1", "A": -21.84, "B": -16.57}
{"compound": "CCc1c(C)[nH]c(C2(N)CCCC2)nc1=O.Cl", "A": 12.94, "B": 11.08}
{"compound": "Cc1cnn(C2(C(=O)O)CCN(c3ccncc3F)CC2)c1", "A": -2.431, "B": -14.2}
{"compound": "O=C(O)[C@@H]1CN(C(=O)CCc2ccccn2)C[C@H]1c1ccccc1", "A": 7.769, "B": 3.469}
{"compound": "Cc1cc2nc(SCC(=O)N3CCCC3)n(C)c(=O)c2[nH]1", "A": -4.693, "B": -19.85}
{"compound": "O=C1CCC(C(=O)NCc2nncn2-c2ccccc2)CN1", "stereo": "stereo not shown", "A": -9.682, "B": 32.86}
{"compound": "CN(Cc1ccco1)C(=O)CN1C(=O)c2ccccc2C1=O", "A": 1.304, "B": -9.169}
{"compound": "CN1CCC2(CCN(Cc3nccs3)CC2)C1=O.O=C(O)C(F)(F)F", "A": 19.22, "B": "27.89 and -5.169"}
{"compound": "CCOC(=O)c1n[nH]cc1-c1cncn1CC(C)n1nc(C)cc1C", "stereo": "stereo not shown", "A": -2.182, "B": 9.173}
{"compound": "CN1CCN(Cc2cnc3n2CCN(C(=O)c2ccnnc2)C3)CC1", "A": -5.652, "B": -1.099}
{"compound": "CC(C)(CNC1CCCN(Cc2ccccc2F)C1)CN1CCOCC1", "stereo": "stereo not shown", "A": 16.02, "B": "0.4407 and 3.469"}
{"compound": "O=C(CCc1ccc(C(F)(F)F)cc1)N1CCCS1(=O)=O", "A": 0.3262, "B": "8.472 and 21.22"}
{"compound": "COC(=O)c1cccn1C1CCN(Cc2ccccc2)CC1", "A": 28.49, "B": 40.65}
{"compound": "CS(=O)(=O)N1CCC2(CC1)CC(NCc1ccco1)c1ccccc12.O=C(O)C(F)(F)F", "stereo": "stereo not shown", "A": -12.09, "B": 18.9}
{"compound": "CC(C)C(NC(=O)c1nc(N2CCOCC2)ncc1Cl)c1cccs1", "stereo": "stereo not shown", "A": -20.78, "B": -14.93}
{"compound": "O=S1(=O)CCC(n2nc(Cc3cccs3)nc2-c2cnccn2)C1", "stereo": "stereo not shown", "A": "-1.472 and 3.219", "B": 10.68}
{"compound": "CCc1oc(C(=O)OC)cc1Cn1cccc(C(F)(F)F)c1=O", "A": -12.49, "B": "-19.36 and -6.346"}
{"compound": "Cc1nc(CN2C(=O)COC3(CCN(Cc4nccs4)CC3)C2C)cs1.O=C(O)C(F)(F)F", "stereo": "stereo not shown", "A": -5.665, "B": 23.96}
{"compound": "CCN1CCN(C(=O)C(C)n2cc(Br)cn2)CC1", "stereo": "stereo not shown", "A": -1.636, "B": -27.21}
{"compound": "CC(=O)N1CCN(C(=O)c2csc(-c3ccc(C)cc3C)n2)CC1", "A": 7.935, "B": -23.92}
{"compound": "O=C(NCC1CC1)C1CCC2(CCN(C(=O)c3cccnc3)CC2)O1.O=C(O)C(F)(F)F", "stereo": "stereo not shown", "A": "-15.96 and -8.086", "B": -16.68}
{"compound": "Cc1ccccc1CCCN1CCS(=O)(=O)CC1C", "stereo": "stereo not shown", "A": 6.846, "B": "13.95 and 4.251"}
{"compound": "CCC(O)CN1CCN(C(=O)Cc2ccc(OC)cc2OC)CC1", "stereo": "stereo not shown", "A": 5.252, "B": 9.126}
{"compound": "CCOc1cccc(CNC(=O)NC2CC=CC2)c1OC(F)F", "A": 17.06, "B": 22.12}
{"compound": "O=C(CCc1cccnc1)N1CCCC(n2cncn2)C1", "stereo": "stereo not shown", "A": -1.658, "B": -2.765}
{"compound": "Cc1noc(C)c1CNC1CCN(c2ccccc2OC(F)F)C1", "stereo": "stereo not shown", "A": "38 and 13.56", "B": 17.31}
{"compound": "CC(C)C1CN(c2ncc(F)cn2)CCC(=O)N1Cc1ccc(F)cc1", "stereo": "stereo not shown", "A": 4.264, "B": "1.99 and 3.162"}
{"compound": "Cn1cc(C(=O)OCC(N)=O)c(-c2ccc(F)cc2F)n1", "A": "-2.84 and -1.824", "B": 5.814}
{"compound": "CC(NC(=O)c1cccs1)C(=O)NCc1ccccn1", "stereo": "stereo not shown", "A": 4.279, "B": -0.587}
{"compound": "CCCNC(=O)N1CCCC2(CCC(=O)N(CCc3c[nH]cn3)C2)C1", "stereo": "stereo not shown", "A": -2.552, "B": "18.24 and -1.461"}
{"compound": "Cc1nn(C)c(C)c1CC(=O)N1CCC(N(C)c2cccnn2)CC1", "A": -21.66, "B": -16.51}
{"compound": "Cc1nc(C)n(CC2CCCN(c3ncnc4sccc34)C2)n1", "stereo": "stereo not shown", "A": -3.81, "B": 3.376}
{"compound": "Cc1nn(C)c(C)c1C1CCCN1Cc1cn2ccsc2n1", "stereo": "stereo not shown", "A": -4.549, "B": 5.323}
{"compound": "CCS(=O)(=O)c1ccc2oc([C@H]3CCN(CC4CCCCC4)C3)nc2c1", "A": -21.7, "B": "-6.515 and -19.23"}
{"compound": "CC1CCN(CC(O)CN2CCn3c(nnc3C3CC3)C2)CC1", "stereo": "stereo not shown", "A": 1.697, "B": "-5.551 and -21.74"}
{"compound": "Cc1nc(C)c(C(=O)N(C)Cc2cnn(C)c2)s1", "A": -7.475, "B": -12.12}
{"compound": "Cn1cc(CNCC2(O)CCCCC2)c(-c2cccnc2)n1", "A": -7.946, "B": 6.687}
{"compound": "Cc1ccnc(C2(C)CCCN2C(=O)c2cnccn2)n1", "stereo": "stereo not shown", "A": -7.177, "B": 14.22}
{"compound": "COc1cccc([C@@H]2CN(C3CCCC3)C[C@H]2C(=O)O)c1", "A": "-2.539 and -6.368", "B": -12.67}
{"compound": "O=C(NCC1CC1)c1c2c(N3CCCC3)ncnc2n2ccccc12", "A": -16, "B": -35.97}
{"compound": "O=C(CN1CCCCC1)N1CCC(c2cc(=O)n3c(n2)CCCCC3)C1.O=C(O)CC(O)(CC(=O)O)C(=O)O", "stereo": "stereo not shown", "A": -20.73, "B": -10.97}

For reference, 3 entries once more:

Result for O=S1(=O)CCC(n2nc(Cc3cccs3)nc2-c2cnccn2)C1 (stereo not shown) was A: -1.472% and 3.219%; B: 10.68%.
Result for O=C(CCc1cccnc1)N1CCCC(n2cncn2)C1 (stereo not shown) was A: -1.658%; B: -2.765%.
Result for Cc1noc(C)c1CNC1CCN(c2ccccc2OC(F)F)C1 (stereo not shown) was A: 38% and 13.56%; B: 17.31%.

The values are deposited in ChEMBL (CHEMBL3988442, “University of Dundee, Small-Polar-MMV Screening Library” (2021)).